Source: publication PMC6766655, “AhR–ROR-γt complex is a therapeutic target for MAP4K3/GLK^highIL-17A^high subpopulation of systemic lupus erythematosus” (The FASEB Journal, 2019)
Results are given in words; binding and its absence hold for the method and conditions named. Binding seen in cells or lysates may run through a third protein. Some results given as binding are weak or reduced against the parent protein; the word gives no strength.

Chains of the proteins cited; added tags and fusions are not shown. Lines headed by an entry give the natural chain unless they say otherwise; changes in a name come on top. A line that says so, or that is headed by a name, gives the form on record, which may keep a tag or linker. Residues count along the entry.
UniProt P35869, residues 11-848: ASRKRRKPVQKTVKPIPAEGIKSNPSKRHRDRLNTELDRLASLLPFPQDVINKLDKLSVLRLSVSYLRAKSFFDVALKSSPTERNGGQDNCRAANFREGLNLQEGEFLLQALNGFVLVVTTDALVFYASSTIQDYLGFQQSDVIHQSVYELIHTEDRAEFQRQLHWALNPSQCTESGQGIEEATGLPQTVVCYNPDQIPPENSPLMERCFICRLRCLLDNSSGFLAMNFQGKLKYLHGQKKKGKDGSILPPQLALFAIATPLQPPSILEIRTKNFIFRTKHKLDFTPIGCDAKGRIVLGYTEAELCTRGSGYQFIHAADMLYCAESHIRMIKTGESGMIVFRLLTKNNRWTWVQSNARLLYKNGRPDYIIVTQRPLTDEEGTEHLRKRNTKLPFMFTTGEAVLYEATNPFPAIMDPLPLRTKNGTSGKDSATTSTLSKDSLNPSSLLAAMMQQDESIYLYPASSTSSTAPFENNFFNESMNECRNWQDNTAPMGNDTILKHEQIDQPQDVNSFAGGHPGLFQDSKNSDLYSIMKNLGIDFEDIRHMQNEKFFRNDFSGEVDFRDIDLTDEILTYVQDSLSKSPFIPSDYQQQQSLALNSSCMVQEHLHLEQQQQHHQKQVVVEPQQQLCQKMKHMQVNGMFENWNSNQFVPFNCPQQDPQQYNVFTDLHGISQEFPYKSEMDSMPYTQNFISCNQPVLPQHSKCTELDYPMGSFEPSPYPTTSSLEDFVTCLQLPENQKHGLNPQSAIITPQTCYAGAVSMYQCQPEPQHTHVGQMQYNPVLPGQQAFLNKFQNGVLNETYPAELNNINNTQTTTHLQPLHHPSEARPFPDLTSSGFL
phosphorylated ROR-γt (Ser-489) (P51449-2, form named): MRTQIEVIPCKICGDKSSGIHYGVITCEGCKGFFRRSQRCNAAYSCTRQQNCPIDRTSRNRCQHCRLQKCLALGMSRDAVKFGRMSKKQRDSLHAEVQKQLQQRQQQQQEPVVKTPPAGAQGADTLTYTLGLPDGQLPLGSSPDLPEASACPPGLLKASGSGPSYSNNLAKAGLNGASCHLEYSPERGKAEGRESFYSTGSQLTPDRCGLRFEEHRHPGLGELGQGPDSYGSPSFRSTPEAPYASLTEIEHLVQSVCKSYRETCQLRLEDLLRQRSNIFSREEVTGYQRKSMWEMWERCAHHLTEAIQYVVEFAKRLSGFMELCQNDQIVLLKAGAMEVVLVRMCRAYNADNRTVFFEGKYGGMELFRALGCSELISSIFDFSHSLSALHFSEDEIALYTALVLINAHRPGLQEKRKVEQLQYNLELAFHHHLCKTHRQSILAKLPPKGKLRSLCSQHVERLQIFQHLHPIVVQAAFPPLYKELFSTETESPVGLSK

Legend:
[1] = target: aryl hydrocarbon receptor (AhR) (human (endogenous in peripheral blood T cells)) (UniProt P35869); test: proximity ligation; in situ PLA (Duolink), anti-AhR plus anti-ROR-γt or anti-phosphorylated ROR-γt (Ser-489) antibodies; unstimulated peripheral blood T cells freshly isolated from patients with SLE or RA; confocal microscopy
[2] = target: aryl hydrocarbon receptor (AhR) (human (endogenous in peripheral blood T cells)) (UniProt P35869); test: proximity ligation; in situ PLA (Duolink), anti-AhR plus anti-ROR-γt antibodies; unstimulated peripheral blood T cells freshly isolated from healthy controls; confocal microscopy

| binding [1] | Substance | binding [2] |
| --- | --- | --- |
| binds | retinoic acid receptor–related orphan nuclear receptor-γt (ROR-γt) (from UniProt P51449-2 1-497) | no binding (condition: T cells from healthy controls) |
| binds | phosphorylated ROR-γt (Ser-489) (from UniProt P51449-2 1-497) | – |
